Some entries share one result that the patent states for a list of compounds. Ends that are not written are not given here.
Experiment: Helical propensity analysis using TFE (CD at 222 nm)
Assay type: physicochemical
Details: 0.2 mg/mL in PBS (pH 7.5), MRE at 222 nm
Protocol: In addition, trifluoroethanol (TFE) is known to induce helix formation in peptides (Soennichsen et al., Biochemistry 31: 8791 (1992)). Accordingly, helical propensity analysis using TFE was performed. Briefly, tested peptides were diluted to 0.2 mg/mL in PBS (pH 7.5) containing 0, 1, 5, 15, 33 or 50% TFE. CD spectra were collected and CD plots were generated after data averaging, buffer subtraction and curve smoothing. Helical propensity values were obtained from mean residue ellipticity (MRE) at 222 nm versus % TFE plots. The concentration of TFE that effected a 50% transformation of the CD spectrum at 222 nm was used as a measure of helical propensity.

Sequence: HGDGSFSDEMNTILDNQAARDFINWLIQTKITD [SEQ ID NO: 54]
- TFE required for helical transformation (helical propensity): > 20 % TFE

Sequence: HGDGSFSDEMNTILDGQAARDFINWLIQTKITD [SEQ ID NO: 55]
- TFE required for helical transformation (helical propensity): > 20 % TFE

— patent US20070212355A1 (priority 2005, published 2007)
